# According to publication PMC10182996:
# Chains of the proteins cited; added tags and fusions are not shown.
# UniProt O00401: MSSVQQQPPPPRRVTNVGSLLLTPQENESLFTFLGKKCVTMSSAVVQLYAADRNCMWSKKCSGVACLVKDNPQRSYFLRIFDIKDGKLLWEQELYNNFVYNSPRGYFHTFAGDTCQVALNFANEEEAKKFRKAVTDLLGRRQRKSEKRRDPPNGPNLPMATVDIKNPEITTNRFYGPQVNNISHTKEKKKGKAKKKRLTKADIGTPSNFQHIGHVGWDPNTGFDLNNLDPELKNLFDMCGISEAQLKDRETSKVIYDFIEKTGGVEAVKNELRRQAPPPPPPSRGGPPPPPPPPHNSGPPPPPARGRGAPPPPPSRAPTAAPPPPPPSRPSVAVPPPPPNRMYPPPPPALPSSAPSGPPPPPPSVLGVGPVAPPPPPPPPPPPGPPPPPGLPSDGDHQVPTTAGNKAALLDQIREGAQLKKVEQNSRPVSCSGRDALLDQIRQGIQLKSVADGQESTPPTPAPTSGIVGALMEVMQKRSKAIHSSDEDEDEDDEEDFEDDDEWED
# UniProt O43516: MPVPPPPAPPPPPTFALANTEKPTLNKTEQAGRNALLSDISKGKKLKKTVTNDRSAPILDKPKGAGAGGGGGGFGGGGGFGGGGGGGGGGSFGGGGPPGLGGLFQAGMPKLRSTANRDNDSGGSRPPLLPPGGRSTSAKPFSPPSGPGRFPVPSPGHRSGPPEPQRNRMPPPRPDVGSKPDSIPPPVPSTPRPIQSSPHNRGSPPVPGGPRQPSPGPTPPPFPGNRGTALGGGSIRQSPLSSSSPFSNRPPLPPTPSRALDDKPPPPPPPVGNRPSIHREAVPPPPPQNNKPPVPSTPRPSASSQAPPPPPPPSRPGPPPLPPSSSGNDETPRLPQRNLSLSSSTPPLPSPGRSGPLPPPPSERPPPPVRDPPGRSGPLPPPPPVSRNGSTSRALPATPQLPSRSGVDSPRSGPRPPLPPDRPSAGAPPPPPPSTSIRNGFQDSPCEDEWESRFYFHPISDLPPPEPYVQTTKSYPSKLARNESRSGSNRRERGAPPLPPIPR
# No constants are given. Whether binding was seen depends on the method and setting. Some results given as binding are weak or reduced against the parent protein; the word gives no strength.
# Molecular target: GFP-N-WASP (wild type) (human) (UniProt O00401)
# Experiment: recruitment to mitochondria-targeted bait (confocal microscopy); MitoCPn0677-C co-expressed in HEp-2 cells with Wip and N-WASP together
substance,measurement,value
GFP-Wip (from UniProt O43516 1-503),binding,binds
